Results reported in patent US20190194322A1.
No constants are given. Whether binding was seen depends on the method and setting. Some results given as binding are weak or reduced against the parent protein; the word gives no strength.

Sequences of proteins named here, by UniProt entry; tags and fusion partners are left off. A change or cut given only in a name is not applied to a line headed by its entry.
UniProt Q9H7M9: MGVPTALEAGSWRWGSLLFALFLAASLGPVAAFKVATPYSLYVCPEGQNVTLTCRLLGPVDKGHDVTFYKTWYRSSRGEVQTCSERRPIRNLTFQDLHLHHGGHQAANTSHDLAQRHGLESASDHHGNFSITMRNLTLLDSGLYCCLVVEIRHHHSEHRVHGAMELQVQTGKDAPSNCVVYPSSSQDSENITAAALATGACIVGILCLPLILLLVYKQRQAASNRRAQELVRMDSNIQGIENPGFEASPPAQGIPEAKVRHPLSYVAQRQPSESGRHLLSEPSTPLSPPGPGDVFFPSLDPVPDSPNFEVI

What was measured:
[1] = target: Recombinant human VSIG3 Fc Chimera (human (homo sapiens)); assay: AVEXIS (FIG. 12B legend)
[2] = target: Recombinant human VSIG3 Fc Chimera (human (homo sapiens)); assay: AVEXIS, VSIG3 Fc-fusion bait on protein A plate, VISTA-COMP-AP prey, A650 with BluePhos (FIG. 12B)

VISTA ectodomain coupled to pentamerizing rat COMP helix and alkaline phosphatase (AVEXIS prey) (from UniProt Q9H7M9 33-194; P35444 28-72)
binding [1]: binds
binding [2]: binds
